Test results from US11957716B2 (Immatics Biotechnologies GmbH, priority 2021, dated 2024).

System: HLA molecules from shock-frozen tissue samples
Test: Identification and relative quantitation of tumor associated peptides presented on the cell surface by LC-MS (XPRESIDENT)
Set-up: species or system human
Conditions: all indications on which the peptide was identified at least once, independent of the HLA typing of the sample or the antibody used

Substance | Peptide presentation on cancer types
67 (GRFWLPFNF; listed as Homo sapiens) [compound 67] | MEL, PRCA, SCLC, UEC
36 (KEIEAQEAA; listed as Homo sapiens) [compound 36] | CRC, OC, RCC, UEC
19 (RILEVVRQPK; listed as Homo sapiens) [compound 19] | HCC, HNSCC, MEL, NSCLC, UBC
131 (TILAKQNVL; listed as Homo sapiens) [compound 131] | AML, HCC, OC, RCC
123 (TYLESSVRI; listed as Homo sapiens) [compound 123] | HCC
172 (LLYKTLIIL; listed as Homo sapiens) [compound 172] | AML, CRC, HCC, NHL, NSCLC, PACA, PRCA
50 (KTIDLVIVR; listed as Homo sapiens) [compound 50] | HNSCC, NSCLC, UBC
136 (YSSEIWDLY; listed as Homo sapiens) [compound 136] | BRCA, GBC, HCC, MEL, UEC
10 (ILMILQPQL; listed as Homo sapiens) [compound 10] | HNSCC, NSCLC, NSCLC, RCC, UEC
146 (KVLVDFLLK; listed as Homo sapiens) [compound 146] | AML, BRCA, CCC, CRC, HNSCC, MEL, NHL, RCC, SCLC, UBC
115 (LWEEKPVCL; listed as Homo sapiens) [compound 115] | CCC, CRC, GBC, HCC, NSCLC, PACA, PRCA, UBC, UEC
157 (APLRAGWAA; listed as Homo sapiens) [compound 157] | CCC, GC, GBC, HCC, NHL, PACA, RCC
57 (IIIDRILLL; listed as Homo sapiens) [compound 57] | NSCLC
151 (AVFVNWEQTKK; listed as Homo sapiens) [compound 151] | HNSCC, MEL, NHL, NSCLC, OSCAR
126 (NPELLVILL; listed as Homo sapiens) [compound 126] | HNSCC, NSCLC, OSCAR, RCC
188 (KLPFFTNFL; listed as Homo sapiens) [compound 188] | BRCA, CCC, CLL, CRC, GBC, GC, HNSCC, MEL, NHL, NSCLC, PACA, RCC, UBC, UEC
121 (ILVTAWKGV; listed as Homo sapiens) [compound 121] | GBC, GC, HCC, NHL, NSCLC, OSCAR, RCC
21 (MLSAQFILK; listed as Homo sapiens) [compound 21] | NHL
149 (SMNSKALRWK; listed as Homo sapiens) [compound 149] | CCC, MEL, NHL
144 (IIVPSFYK; listed as Homo sapiens) [compound 144] | CCC, CRC, GBC, GBM, GC, HCC, MEL, NSCLC, RCC
148 (SVYMATTLK; listed as Homo sapiens) [compound 148] | NSCLC, OC, PACA, UBC, UEC
196 (NSENLLVY; listed as Homo sapiens) [compound 196] | CCC, CRC, MEL, NHL, NSCLC
85 (LPHPVNSGL; listed as Homo sapiens) [compound 85] | CCC, NSCLC, NSCLC, NSCLC, UBC
70 (LIAGLIFLK; listed as Homo sapiens) [compound 70] | CLL, NHL, OC, RCC, UBC, UEC
18 (SLSKLVATV; listed as Homo sapiens) [compound 18] | CCC, CRC, GC, OSCAR, PACA
13 (LYDTVTHTF; listed as Homo sapiens) [compound 13] | GC, RCC

Substance | Peptide presentation on cancer types
58 (REQLDGATL; listed as Homo sapiens) [compound 58] | BRCA, CCC, CRC, GBC, GC, HNSCC, MEL, NSCLC, OC, OSCAR, PACA
12 (RLQEGLAAL; listed as Homo sapiens) [compound 12] | RCC
117 (GEAAAARPV; listed as Homo sapiens) [compound 117] | HCC, MEL, NSCLC
204 (VVRASSGLK; listed as Homo sapiens) [compound 204] | AML, CLL, CRC, GBM, HCC, NSCLC, PACA, PRCA, RCC
142 (YMLEMDNSMKI; listed as Homo sapiens) [compound 142] | CCC, CRC, NSCLC, PACA
171 (NVSFEVSLLY; listed as Homo sapiens) [compound 171] | GC, HNSCC, NSCLC, OC, PACA, PRCA, RCC
125 (ALAQGANLK; listed as Homo sapiens) [compound 125] | GB, MEL, RCC
112 (ETYGTFVLR; listed as Homo sapiens) [compound 112] | BRCA, CCC, CRC, GBC, HCC, HNSCC, NSCLC, OC, OSCAR, SCLC, RCC, UBC
113 (ALGPMAFRV; listed as Homo sapiens) [compound 113] | BRCA, CRC, NSCLC, OC, OSCAR, PACA, RCC
184 (VVHGGMSIF; listed as Homo sapiens) [compound 184] | AML, BRCA, CCC, GC, NSCLC
48 (TEMSVSALY; listed as Homo sapiens) [compound 48] | BRCA
110 (APSLARFLSL; listed as Homo sapiens) [compound 110] | BRCA, HNSCC, MEL, NSCLC, OC, OSCAR, RCC, SCLC
186 (SQIKSPVVF; listed as Homo sapiens) [compound 186] | BRCA, CRC, GBM, GC, HCC, NSCLC, OC, RCC, SCLC
130 (ITPDSIPSV; listed as Homo sapiens) [compound 130] | AML, GBC, NHL, OC, SCLC
211 (VVTIVMHIYK; listed as Homo sapiens) [compound 211] | AML, CCC, BRCA, MEL
64 (LPTRSLPAF; listed as Homo sapiens) [compound 64] | RCC
135 (SADTAELLL; listed as Homo sapiens) [compound 135] | CCC, HCC
140 (QPAPQPLL; listed as Homo sapiens) [compound 140] | BRCA, CRC, HNSCC, NHL, OSCAR, RCC, SCLC, UBC
15 (SPVETRSLL; listed as Homo sapiens) [compound 15] | CCC, HNSCC, NSCLC, PACA
43 (VFIPSVINL; listed as Homo sapiens) [compound 43] | PRCA
213 (TLLSFKTVLFK; listed as Homo sapiens) [compound 213] | AML, CRC, MEL, NHL, NSCLC, UEC
98 (FSEIFQDFL; listed as Homo sapiens) [compound 98] | AML, BRCA, GC, HNSCC, NHL, RCC, UEC
180 (QYLTYYPSF; listed as Homo sapiens) [compound 180] | CLL, CRC, NHL, NSCLC, OSCAR, PRCA, UBC, UEC
160 (EYLGSENVF; listed as Homo sapiens) [compound 160] | GC, PRCA
198 (MTYQQPFSNR; listed as Homo sapiens) [compound 198] | GBC, HCC, HNSCC, NHL, MEL, NSCLC, OC, OSCAR, UBC, UEC
65 (NSDLFYLLL; listed as Homo sapiens) [compound 65] | NSCLC, OSCAR, PACA, UBC
